Measurements from paper PMC9223397 (International Journal of Molecular Sciences, 2022).

System: SMI-32-positive MNs in spinal cord organotypic cultures
Assay: Spinal cord organotypic cultures (SCOC) under chronic excitotoxicity (THA)
Type: cell-based, Sprague–Dawley rats
Details: THA 100 µM, 28 DIV; 5 µM, positive control
Experimental: SCOCs from lumbar sections of 8-day-old Sprague–Dawley rats were prepared as previously described. Briefly, the spinal cord was collected and cut into 350 μm thick transverse sections with a McIlwain Tissue Chopper. Four lumbar sections were transferred onto Millicell-CM nets (0.4 μm, PICM03050, Millipore) in medium (50% (v/v) minimal essential medium (MEM, M5775, Sigma), 2 mM glutamine, 25 mM HEPES, 25% (v/v) Hank’s Balanced Salt Solution (HBSS^−/−;14175, Gibco; UK) supplemented with 25.6 mg/mL glucose, and 25% (v/v) heat-inactivated horse serum (26050-088, Gibco; New Zealand), pH = 7.2). Cultures were maintained at 37 °C in a 5% CO2 humidified cabin and left to stabilize. After 7 days in vitro (DIV), DL-threo-β-hydroxyaspartic acid (THA; 100 μM: H2775, Sigma Aldrich, St. Louis, MI, USA) was added to induce chronic excitotoxicity. The neuroprotective effect of each Sig-1R ligand was assessed by its coaddition to the culture with THA and renewing at each medium change. […] Comparisons were performed against slices with vehicle as negative control and with the addition of riluzole (5 μM) as positive control. […]
Slices were maintained for 28 DIV and then fixed with 4% PFA. […] MN survival was assessed by counting all SMI-32-positive neurons in each spinal cord using the Cell Counter plugin of ImageJ software.

For Nc1nc2ccc(OC(F)(F)F)cc2s1 [Riluzole, reference compound], which “Number of SMI-32-positive MNs vs THA condition” value is on record?
Its value is “preserved MNs at levels of control cultures”.
